In PubChem BioAssay AID624058 (Broad Institute, 2012):
The shares of active, inactive and inconclusive entries below differ from those in the screen. The source made the active and inactive calls. No rule for the calls is given here.

Experiment: EDDHA-treated Pseudomonas aeruginosa growth inhibition – OD600, ATCC 15692, cherry-pick, set 2, dose response (AID 624058)
Conditions: P. aeruginosa ATCC 15692 with EDDHA, OD600, 24-30 h; at 50 µM (top of the series) unless noted

SMILES	growth inhibition
COc1ccc(-c2cc3ncccc3cn2)cc1	inconclusive: 44.6%
Cn1cccc1C(C#N)c1ccccc1C#N (centres undefined)	inconclusive: 20.5%
CCOC(=O)c1cnc(-c2ccccc2)nc1N	inconclusive: 16.9%
COc1ccc(/C(C#N)=C/c2cccnc2)cc1	inconclusive: 10.2%
O=C(NC1CCSC1)c1cccc(Cl)c1 (centres undefined)	inconclusive: 15.3%
Cc1cc(C)nc(N(C#N)Cc2cccc([N+](=O)[O-])c2)n1	inconclusive: 61.7%
CCOC(=O)c1cc2c(s1)-c1c(C)cccc1OC2	inconclusive: 27.5%
Cc1cccc(NC(=O)c2ccc3c(c2)OCCO3)n1	inconclusive: 3.84%
CCOc1ccc(CNC2CCCc3ccccc32)cc1 (centres undefined)	inconclusive: 15.9% [at 16 µM]
CCCNS(=O)(=O)c1ccc(OC)c(Cl)c1Cl	inactive: 11.6%
CSC1=N/C(=C\C=C\c2cccs2)C(=O)S1	inconclusive: 46.2%
N#CC(c1ccc(Cl)cc1)c1ccc(Cl)nn1 (centres undefined)	inconclusive: 10.3%
O=C1C2C(C(=O)N1Cc1ccco1)C1C=CC2C12CC2 (centres undefined)	inactive: 40%
N#CC(c1ccc(Cl)nn1)c1c(F)cccc1Cl (centres undefined)	inconclusive: 19.8%
C=CCOC(=O)c1ccc(-n2cnc(C)n2)nc1	inconclusive: -12.4%
Cc1cccc(NC(=O)Nc2cc(C)on2)c1	inconclusive: 13.5%
O=[N+]([O-])c1ccc(N2CCCC2)nc1	inactive: 53.4%

SMILES	growth inhibition
COC(=O)c1ccc(NC(=S)N2CCCC2)cc1	inconclusive: 33.5%
CCOC1=CC(=O)OC(c2ccccc2)C1 (centres undefined)	inconclusive: 22.8%
C#CCSc1ncc(-c2ccccc2)cn1	inconclusive: -28.5%
COC(=O)c1ccc(/C=C(\C#N)c2ccccn2)cc1	inconclusive: 2.29%
COc1ccc(/C=C/C(=O)c2ccoc2)cc1	inconclusive: 32.3%
N#Cc1cc([N+](=O)[O-])ccc1N1CCCC1	inconclusive: 17.1%
Clc1ccc2scc(CN3CCCCC3)c2c1	inconclusive: -10.7%
Cc1cc(NC(=O)c2cc([N+](=O)[O-])ccc2Cl)no1	inconclusive: 33.8%
Cc1cccc(C(C#N)c2ccc(Cl)nn2)c1 (centres undefined)	inconclusive: 0.204%
O=[N+]([O-])c1ccc(-c2cccnc2)cc1	inconclusive: 25.6%
Cc1ccc(S(=O)(=O)NCCC(C)C)cc1[N+](=O)[O-]	inconclusive: 33.9%
Cc1ccc2scc(CN3CCCC3)c2c1	inconclusive: 2.76%
N#CC(c1ccc(Cl)cc1)c1ncc(C(F)(F)F)cc1Cl (centres undefined)	inconclusive: -12.1%
COc1ccccc1C(C#N)c1cccc(Cl)n1 (centres undefined)	inactive: 8.34%
O=C1C=C(c2cccc(Cl)c2)C[C@@H](c2ccc(F)cc2)C1	inconclusive: 18.2%
N#C/C(=C/c1ccco1)c1nc2ccccc2s1	inactive: 31.8%
O=C(NC1CCCCCCC1)c1cccc(Cl)c1	inconclusive: -16.6%

An excerpt from above in order of SMILES length, smallest number first.
SMILES	growth inhibition
CCOC1=CC(=O)OC(c2ccccc2)C1 (centres undefined)	inconclusive: 22.8%
O=C(NC1CCCCCCC1)c1cccc(Cl)c1	inconclusive: -16.6%
Cc1ccc(S(=O)(=O)NCCC(C)C)cc1[N+](=O)[O-]	inconclusive: 33.9%
